According to PubChem BioAssay AID1688 (National Center for Advancing Translational Sciences (NCATS), 2009):
In all, about 220,000 compounds went through this assay and about 2,400 (1.1%) were called active. The inconclusive results got no clear call from the source; some entries with a clear call stand among them for comparison. Calls come from the whole dose curve; as a rule, active = well fitted inhibition curve with a large enough effect; inconclusive = small, poorly fitted or top-dose-only effect, or effect the other way; inactive = no such curve, though single readings can be large or run the other way. Where the call is inconclusive, the potency comes from a doubtful curve fit.

Test: qHTS Multiplex Assay to Identify Dual Action Probes in a Cell Model of Huntington: Aggregate Formation (GFP); note: nearly all actives have a fitted effect of over 60% in size
Conditions: PC12 HttQ103-GFP aggregates, Acumen cytometry, 40 h; activity change, negative = inhibition: at 46.1 µM (top of the series) unless noted
Outline: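 Using laser scanning cytometry, GFP-positive aggregates were counted after lysis of PC12 cells induced with 100 nM tebufenozide to express HTT exon 1 Q103–GFP. Compounds were tested in titration.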
% is set by controls: 0 for no effect and ±100 for the full control effect; potency is the fitted concentration of half-maximal effect.

Row | SMILES | activity change, negative = inhibition | Potency
1 | CC(=O)NC(Cc1cccc(F)c1)C(=O)NC1CCN(C(=O)c2ccc(C)cc2)CC1 (stereo not given) | inactive: 3.6% [at 9.22 µM] | 
2 | O=C(NO)c1ccccc1O |  | inactive
3 | CC1(OC(=O)C2CCCC2)C(=O)C=C2C=C3CCCCN3C=C2C1=O (stereo not given) |  | inconclusive: 1.12 µM [inhibitor, single point]
4 | Cn1c(=O)[nH]c2ncccc21 | inactive: -0.286% [at 9.22 µM] | 
5 | O=C(Nc1nc(-c2ccccc2)c(C(=O)c2ccccc2)s1)c1ccc(S(=O)(=O)N2CCCC2)cc1 |  | inconclusive: 35.5 µM [inhibitor, single point]
6 | COc1ccc(NCC(=O)N/N=C(\C)c2cc3ccccc3o2)cc1 |  | inactive
7 | CCOc1ccc(C(=O)N2CCN(Cc3ccccc3)CC2)cc1 |  | inactive
8 | CCOC(=O)N1CCN(C(=O)c2ccc(CSc3ccc(Cl)cc3)cc2)CC1 |  | inactive
9 | Cc1ccc(-n2c(Cc3cccn3C)nnc2SCC(=O)Nc2ccc3c(c2)OCO3)cc1 |  | inconclusive: 10 µM [activator, partial curve]
10 | CC(=O)c1c(C)nn(CC(O)COc2ccc3c(c2)CCC3)c1C (stereo not given) |  | inconclusive: 28.2 µM [inhibitor, partial curve]
11 | O=C(CN1c2ccccc2Sc2ccccc21)NNC(=S)Nc1ccc(Cl)cc1Cl |  | inconclusive: 17.8 µM [inhibitor, single point]
12 | COc1ccc(/C=C2\CCCC3C2=NN(C(=O)CSc2n[nH]c(N)n2)C3c2ccc(OC)cc2)cc1 (stereo not given) |  | inconclusive: 22.4 µM [inhibitor, single point]
13 | Cc1noc(/C=C/N(C)C)c1S(=O)(=O)N1CCCC(C(=O)NC2CCCCC2C)C1 (stereo not given) |  | inconclusive: 11.2 µM [activator, partial curve]
14 | CCC(COC(=O)Nc1cccc(C)c1)NC(=O)OCC(C)C (stereo not given) |  | active: 10 µM
15 | COC(=O)c1cn[nH]c1NC(=S)Nc1ccc(C)cc1Cl |  | inconclusive: 1.12 µM [activator, partial curve]
16 | CCN(CC)c1ccc(/C=N/NC(=O)c2c(Cl)c(C)nn2C)cc1 |  | inactive
17 | COc1ccc(CNC(=O)CN(Cc2ccc(Cl)cc2)S(=O)(=O)c2ccccc2)cc1 |  | inconclusive: 1.58 µM [activator, partial curve]
18 | CSc1ccccc1C(=O)N1CCN(c2cccc(Cl)c2)CC1 |  | inconclusive: 35.5 µM [inhibitor, single point]
19 | C=CCOc1c(Br)cc(CNn2nnnc2N)cc1OC |  | inactive
20 | Cc1ccc2oc(-c3cccc(NC(=S)NC(=O)/C=C/c4ccco4)c3)nc2c1 |  | inconclusive: 35.5 µM [activator, single point]
21 | CC1CCN(c2nc3c(c(=O)[nH]c(=O)n3C)n2CC(C)CSc2nnnn2-c2ccccc2)CC1 (stereo not given) |  | inconclusive: 17.8 µM [activator, single point]
22 | COc1ccc(NC(=O)COc2cccnc2[N+](=O)[O-])cc1OC |  | inconclusive: 39.8 µM [activator, partial curve, poor fit]
23 | O=S(=O)(c1ccc(Br)s1)N1CCN(Cc2ccc3c(c2)OCO3)CC1 |  | inconclusive: 35.5 µM [inhibitor, single point]
24 | CN1CCN(c2ccc([N+](=O)[O-])cc2S(=O)(=O)N2CCOCC2)CC1 |  | inconclusive: 0.794 µM [activator, full curve, poor fit]
25 | COC(=O)C1=C(C)N=c2s/c(=C3\C(=O)Nc4ccccc43)c(=O)n2C1c1ccccc1 (stereo not given) |  | inconclusive: 0.126 µM [inhibitor, full curve, poor fit]

Row | SMILES | activity change, negative = inhibition | Potency
26 | COC(=O)C1=C(C)Nc2ncnn2C1c1ccccn1 (stereo not given) |  | inconclusive: 3.55 µM [inhibitor, partial curve]
27 | Cc1ccc(CSc2ncnc3c2cnn3Cc2ccccc2)cc1 |  | inactive
28 | CC(C(=O)O)N1C(=O)/C(=C/C=C/c2ccco2)SC1=S (stereo not given) |  | inactive
29 | COc1ccccc1NC(=O)CSc1nc(O)cc(=O)n1-c1ccccc1OC |  | inconclusive: 8.91 µM [inhibitor, partial curve, poor fit]
30 | O=C(/C=C/c1ccccc1)NCCO |  | inactive
31 | N#C/C(=C(/O)c1ccco1)c1nc2ccccc2s1 |  | inactive
32 | O=c1nc2n(Cc3ccccc3)c3ccccc3cc-2c(=O)[nH]1 |  | inconclusive: 35.5 µM [activator, single point]
33 | CC(C)C[C@H](NC(=O)C1(c2ccccc2)CCN(C(=O)[C@H]2CSCN2C(=O)OC(C)(C)C)CC1)C(=O)O |  | inactive
34 | Cc1cc(C)nc(-n2nc(C)cc2NC(=O)CN2CCCC2)n1 |  | inactive
35 | Cc1csc(C2=C(O)CN(c3ccc4c(c3)OCCOCCOCCOCCO4)C2=N)n1 |  | inactive
36 | C=CCn1c(-c2csc3c2CCC(C)C3)n[nH]c1=S (stereo not given) |  | inactive
37 | CSc1cnn(Cc2ccccc2)c(=O)c1SCc1ccccc1 |  | inconclusive: 3.98 µM [activator, single point]
38 | Cc1ccccc1-c1nc2sc3c(c2c(=O)o1)CCC3 |  | inactive
39 | Cc1ccc(N2C(=O)CC(Sc3nc4ccccc4o3)C2=O)cc1Cl (stereo not given) |  | inconclusive: 35.5 µM [inhibitor, single point]
40 | N/C(=N\O)c1cccc(CS(=O)(=O)c2ccccn2)c1 | inactive: -2.83% [at 9.22 µM] | 
41 | O=C(Nc1nc(-c2ccccc2)cs1)c1cccc([N+](=O)[O-])c1 |  | inconclusive: 22.4 µM [inhibitor, single point]
42 | Cc1c(-c2csc(N)n2)cnn1C |  | inactive
43 | S=C(NCc1ccccc1Cl)Nc1ccccc1Cl |  | inconclusive: 7.08 µM [inhibitor, partial curve]
44 | CCOC(=O)c1ccc2[nH]c3c(c2c1)CCCC3C(=O)OCC (stereo not given) |  | inconclusive: 3.98 µM [activator, single point]
45 | COc1ccc(C2C(C(=O)NCCN(C)C)c3cc(OC)c(OC)cc3C(=O)N2C)cc1OC (stereo not given) |  | inconclusive: 0.112 µM [activator, full curve, poor fit]
46 | O=C(Oc1ccc(NC2=C(Cl)C(=O)c3ccccc3C2=O)cc1)c1ccc([N+](=O)[O-])cc1 |  | inconclusive: 35.5 µM [inhibitor, single point]
47 | O=C(Cc1cc(=O)[nH]c(=O)[nH]1)NCc1ccc(Cl)cc1 |  | inconclusive: 35.5 µM [inhibitor, single point]
48 | O=C(OCc1cnc(Cl)s1)c1ccccc1Cl |  | inactive
49 | O=C(CCSCCc1ccccn1)Nc1ccccn1 |  | inconclusive: 3.16 µM [activator, single point]
50 | CCN(C1CCCCC1)S(=O)(=O)c1ccc(OC)c(C)c1 |  | inconclusive: 2.82 µM [inhibitor, partial curve]

Row | SMILES | activity change, negative = inhibition | Potency
51 | COC(=O)c1c(NC(=O)Cc2cccs2)sc(C(=O)N2CCCCC2)c1C |  | inconclusive: 35.5 µM [inhibitor, single point]
52 | O=C(CSc1nc(-c2ccccc2)cs1)NCCN1C(=O)CSC1=O |  | inactive
53 | COc1ccc(S(=O)(=O)N(C)C)cc1NC(=O)COC(=O)CC1CCCC1 |  | inactive
54 | Cc1ccsc1/C=C/C1=Cc2c(sc(NC(=O)CSc3n[nH]c(N)n3)c2C#N)C(C)(C)C1 | inactive: 12.2% [at 9.22 µM] | 
55 | Cc1nc2sc(C#N)c(N)c2c2c1CCCC2 |  | inconclusive: 22.4 µM [inhibitor, single point]
56 | O=C(Oc1coc(CSc2ncccn2)cc1=O)c1ccco1 |  | inactive
57 | O=[N+]([O-])c1ccc2nc(-[n+]3c(-c4ccccc4)cc(-c4ccccc4)cc3-c3ccccc3)[nH]c2c1 |  | inconclusive: 15.8 µM [inhibitor, single point]
58 | Cn1c([N+](=O)[O-])cnc1N1CCN(c2nncs2)C1=O | inactive: 22.1% [at 9.22 µM] | 
59 | Cc1cc(C)c2c(N)c3cccc(C)c3nc2n1 |  | active: 12.6 µM
60 | Cc1sc(N2C(=O)C3C4C=CC(C4)C3C2=O)c(C#N)c1C (stereo not given) |  | inconclusive: 14.1 µM [activator, single point]
61 | CC(C)n1nnnc1-c1ccc(Cl)cc1 |  | inactive
62 | O=C(NCc1ccco1)/C(=C/C=C\c1ccccc1)NC(=O)c1ccc(Br)o1 |  | inconclusive: 15.8 µM [inhibitor, single point]
63 | CCN1CCN(c2cc3c(nn2)Oc2ccccc2N3C)CC1 |  | inactive
64 | O=C(O)CSCC(=O)c1ccccc1 |  | inactive
65 | CO/N=C/NC(=O)c1c(OC)ccnc1Oc1ccc(Cl)cc1 |  | inconclusive: 1.26 µM [inhibitor, single point]
66 | Cc1ccc(NC(=O)c2cc(=O)c3ccccc3o2)cc1 |  | inconclusive: 5.62 µM [inhibitor, single point]
67 | COc1ccc(Br)cc1/C=N/NC(=O)CNC(=O)/C=C/c1ccccc1 |  | inconclusive: 10 µM [inhibitor, partial curve]
68 | CCN(CC)P(=O)(Nc1ccc(C)cc1Br)c1ccc(N(C)C)cc1NC(=O)c1ccco1 (stereo not given) |  | active: 35.5 µM
69 | O=C(Nc1ccc(Nc2ccccc2)cc1)C1CC1 |  | inactive
70 | O=S(=O)(Nc1nnc(-c2ccccc2)s1)c1ccc(Cl)cc1 |  | active: 35.5 µM
71 | CC(NS(=O)(=O)c1ccccc1)C(=O)NCCc1ccccn1 (stereo not given) |  | inconclusive: 8.91 µM [inhibitor, partial curve]
72 | COc1ccccc1N1CCN(CC(O)COc2ccc(S(=O)(=O)N3CCOCC3)cc2)CC1 (stereo not given) |  | inconclusive: 11.2 µM [inhibitor, partial curve]
73 | Cc1cc(N2CCN(c3nc4ccccc4s3)CC2)n2ncnc2n1 |  | active: 11.2 µM
74 | CCCn1c(=N)n(CC(=O)c2cccs2)c2ccccc21 |  | inactive
75 | COCCCN1C(=O)C(O)=C(C(=O)c2ccco2)C1c1cccc(Br)c1 (stereo not given) |  | inconclusive: 3.55 µM [inhibitor, single point]

Single records, from the list above.
`CCN1CCN(c2cc3c(nn2)Oc2ccccc2N3C)CC1` in the list: Potency: inactive
`C=CCOc1c(Br)cc(CNn2nnnc2N)cc1OC` in the list: Potency: inactive
`O=C(Nc1nc(-c2ccccc2)c(C(=O)c2ccccc2)s1)c1ccc(S(=O)(=O)N2CCCC2)cc1` in the list: Potency: inconclusive: 35.5 µM [inhibitor, single point]

Copied from the list.
In Potency, `COCCCN1C(=O)C(O)=C(C(=O)c2ccco2)C1c1cccc(Br)c1` (stereo not given) shows inconclusive: 3.55 µM [inhibitor, single point]
In Potency, `O=S(=O)(Nc1nnc(-c2ccccc2)s1)c1ccc(Cl)cc1` shows active: 35.5 µM
